The target of assay [1] is T1, human MCAM (antigen of the BLI kinetics in Example 7) (human) (UniProt P43121).
T1 sequence: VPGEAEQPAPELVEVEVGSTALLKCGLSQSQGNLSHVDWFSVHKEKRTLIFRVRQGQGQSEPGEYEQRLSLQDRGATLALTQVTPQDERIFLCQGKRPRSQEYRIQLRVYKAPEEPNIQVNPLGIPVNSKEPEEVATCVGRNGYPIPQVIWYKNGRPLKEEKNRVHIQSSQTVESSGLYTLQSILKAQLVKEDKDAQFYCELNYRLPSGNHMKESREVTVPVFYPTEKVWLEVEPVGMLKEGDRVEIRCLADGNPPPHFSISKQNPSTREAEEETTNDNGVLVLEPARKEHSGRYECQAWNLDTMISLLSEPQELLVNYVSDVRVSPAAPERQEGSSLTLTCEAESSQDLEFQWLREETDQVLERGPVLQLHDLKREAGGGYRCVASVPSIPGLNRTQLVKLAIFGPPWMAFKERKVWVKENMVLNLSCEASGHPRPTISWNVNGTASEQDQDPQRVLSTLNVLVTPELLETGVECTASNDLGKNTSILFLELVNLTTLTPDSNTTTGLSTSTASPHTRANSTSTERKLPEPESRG
Nature of the assay: BLI, ForteBio Octet QK.

The target of assay [2] is T2, human MCAM, full length, expressed on transfected cells (human) (UniProt P43121).
T2 sequence: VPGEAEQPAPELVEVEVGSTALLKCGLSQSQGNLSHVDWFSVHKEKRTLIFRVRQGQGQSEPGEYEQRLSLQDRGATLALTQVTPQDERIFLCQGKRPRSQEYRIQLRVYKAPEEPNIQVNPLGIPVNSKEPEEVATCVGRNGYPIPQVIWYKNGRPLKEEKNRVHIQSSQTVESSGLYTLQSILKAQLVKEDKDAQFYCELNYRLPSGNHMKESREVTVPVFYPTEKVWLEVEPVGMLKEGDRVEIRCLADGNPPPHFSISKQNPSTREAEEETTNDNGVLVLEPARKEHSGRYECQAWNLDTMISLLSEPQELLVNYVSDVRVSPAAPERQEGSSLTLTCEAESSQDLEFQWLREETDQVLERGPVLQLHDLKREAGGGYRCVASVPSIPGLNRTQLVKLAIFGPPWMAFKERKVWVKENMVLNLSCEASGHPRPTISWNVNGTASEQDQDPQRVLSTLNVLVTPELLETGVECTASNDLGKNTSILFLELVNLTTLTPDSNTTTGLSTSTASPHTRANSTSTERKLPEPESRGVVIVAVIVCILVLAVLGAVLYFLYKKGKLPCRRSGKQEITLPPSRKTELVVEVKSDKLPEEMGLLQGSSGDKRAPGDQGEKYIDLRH
In words: binding affinity experiments, data not shown.

For assay [3], the target named is T2, human MCAM, full length, expressed on transfected cells (human). In words: summary sentence of the example's results; no method named in the sentence.
The target in assay [4] is T3, combination of human MCAM domains 1 and 2 (amino acids 19-242) hFc (human) (UniProt P43121).
T3 sequence: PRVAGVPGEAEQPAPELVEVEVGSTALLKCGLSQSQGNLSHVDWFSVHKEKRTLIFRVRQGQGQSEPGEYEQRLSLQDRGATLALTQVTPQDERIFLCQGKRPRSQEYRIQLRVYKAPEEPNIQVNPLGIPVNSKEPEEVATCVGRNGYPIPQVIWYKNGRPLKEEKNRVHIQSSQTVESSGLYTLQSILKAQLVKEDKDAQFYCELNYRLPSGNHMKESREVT
In words: ForteBio BLI, MCAMhFc domains on anti-human IgG Fc biosensors, antibody at 5 ug/ml. Background: In BLI a coated tip is dipped into the sample, and binding shifts an interference pattern.

Assay [5] deals with T4, human MCAM domain 3 (amino acids 244-321) hFc (human) (UniProt P43121).
T4 sequence: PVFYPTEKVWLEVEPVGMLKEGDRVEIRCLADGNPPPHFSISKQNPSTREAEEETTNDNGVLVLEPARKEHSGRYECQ
The assay is described as above.

Assay [6] deals with T5, wild-type human MCAM, hsMCAM-V5/HIS6, expressed on BHK cells (human) (UniProt P43121).
T5 sequence: T2 sequence
In words: immunofluorescence on BHK cells expressing human MCAM.

Substitutions are numbered along the chain they refer to. No constants are given. Whether binding was seen depends on the method and setting. Some entries that bind do so weakly or less than the wild type. For part of these data: Tags and fused reporters may be left off the sequences shown.

B1: Human 1749VH3VL3 (Hu1749VHv3 and Hu1749VLv3) (antibody, V domains shown)
VH: EVKLVESGGGLVQPGGSLRLSCAASGFTFSSYIMSWVRQTPEKRLEWVATISSGGSSTYYPDSVKGRFTISRDNAKNTLYLQMSSLKSEDTAMYYCTRDDDYDVKVFAYWGQGTLVTVSS
VL: DIVMTQSPSSLAVSLGERVTINCKSSRSLLNSRIRKNYLAWYQQKPGQSPKLLIYWASTRESGVPDRFSGSGSGTDFTLTISSLQAEDVAVYYCKQSYNLLTFGQGTKVEIKR
notes: also called hu1749VH3VL3; hu1749H3L3
B1: in assay [1], the binding result was “binds”.

B2: rat anti-human MCAM monoclonal antibody clone 2120.4.19 (antibody, V domains shown)
VH: QVQLKESGPGLVQPSQTLSLTCTVSGFSLTSNGVSWVRQPPGKGLEWIAAISSGGTTYYNSAFKSRLSISRNTSKSQVLLKMNSLQTEDTAMYFCARRYGYGWYFDFWGPGTMVTVSS
VL: DIRMTQSPSLLSASVGDRVTLNCKASQNIYNSLAWYQQKLGEGPKVLIFNANSLQTGIPSRFSGSGSGTDFTLTISSLQPEDFATYFCQQFYSGYTFGAGTKLELK
notes: Rat hybridoma monoclonal antibody
Regarding B2, the binding result in assay [2], in assay [3] and in assay [4] was “binds” throughout.

B3: rat anti-human MCAM monoclonal antibody clone 2107.4.10 (antibody, V domains shown)
VH: QVQLKESGPGLVQSSQTLSLTCTVSGFSLTSNGVSWVRQPPGKGLEWIAAISSGGSTYYNSAFKSRLSISRNTSKSQVLLKMNSLQTEDTGMYFCARHRPFYFDYWGQGVMVTVSS
VL: DIQVTQSPSLLSASVGDRVTLNCKGSQNIYKSLAWFRLKRGEAPKLLIYDANSLQTGIPSRFSGSGSGTDFTLTITSLQPEDVATYFCQQYYSGYTFGAGTKLELK
notes: as for B2
On to B3, for which the binding result in assay [2], in assay [3] and in assay [4] was “binds” each time.

B4: mouse anti-human MCAM monoclonal antibody clone 1414.1.2 (antibody, V domains shown)
VH: EIQLQQTGPELVKPGASVKISCKASGYSFTDYIMLWVKQSHGKSLEWIGNINPYSGSSGYNLKFKGKATLTVDKSSSTAYMQLNSLTSEDSAVYYCARGKDFAMDYWGQGTSVTVSS
VL: DIVMSQSPSSLAVSAGEKVTMSCKSSQSLLNSSTRKNFLAWYQQKPGQSPKLLIYWASTRESGVPDRFTGSGSGTDFTLTISSVQAEDLAVYYCKQSYNRYTFGGGTKLEIK
notes: Mouse hybridoma monoclonal antibody
For the molecule B4, the binding result in assay [5] is recorded as “binds”.

B5: mouse anti-human MCAM monoclonal antibody clone 1749.1.3 (antibody, V domains shown)
VH: B1 VH with E1D, G10D, Q13K, R19K, S120A
VL: B4 VL with S22N, Q27R, S33R, T34I, F38Y, R100L, Y101L, G105A, I111L
notes: Mouse hybridoma monoclonal antibody; also called m1749
As to B5, the binding entry in assay [6] and in assay [5] was “binds” throughout.

B6: mouse anti-human MCAM monoclonal antibody clone 1415.1.1 (antibody, V domains shown)
VH: QVQLQQPGAELVQPGAPVKLSCKASGYIFTSYWMNWVKQRPGRGLEWIGRIDPSDSKIHYNQKFKDKATLTVDRSSSTAYIQLGSLTSEDSAVYYCAKEGGLRRGDYAMDYWGQGTSVTVSS
VL: DIVMTQSPATLSVTPGDRVSLSCRASQSISDYLHWYQQKSHESPRLLIKYASQSISGIPSRFSGSGSGSDFTLSINSVEPEDVGVYYCQNGHNFPRTFGGGTKLEIK
notes: as for B4
For the molecule B6, the binding entry in assay [5] was “binds”.

B7: mouse anti-human MCAM monoclonal antibody clone 1174.1.3 (antibody, V domains shown)
VH: QIQLVQSGPELKKPGETVKISCKASGYTFTNYGMNWVKQAPGKGLKWMGWINTYTGEPTYADDFKGRFALSLETSASTAYLQINNLKNEDMATYFCARYRYNKYERAMDYWGQGTSVTVSS
VL: DIVLTQSPASLAVSLGQRATISCRASKSVSTSGYSYMYWYQQKPGQPPKLLIYLASNLESGVPARFSGSGSGTDFTLNIHPVEEEDAATYYCQHSRELPFTFGSGTKLEIK
notes: as for B4
On to B7, for which the binding entry in assay [5] is listed as “binds”.

The record behind these values is patent publication US20170129954A1 (PROTHENA BIOSCIENCES, published 2017).
